Experimental data from publication PMC9277809.

Experiments:
[1] = molecular target: T1, OsNPR2-HA (rice (Oryza sativa L.)) (UniProt Q0JJ01); test: co-IP; GFP-tagged substrate and HA-tagged E3 co-expressed in N. benthamiana leaves by agro-infiltration, 72 h; immunoprecipitated with anti-HA/agarose beads; blot with anti-GFP or anti-HA
T1 sequence: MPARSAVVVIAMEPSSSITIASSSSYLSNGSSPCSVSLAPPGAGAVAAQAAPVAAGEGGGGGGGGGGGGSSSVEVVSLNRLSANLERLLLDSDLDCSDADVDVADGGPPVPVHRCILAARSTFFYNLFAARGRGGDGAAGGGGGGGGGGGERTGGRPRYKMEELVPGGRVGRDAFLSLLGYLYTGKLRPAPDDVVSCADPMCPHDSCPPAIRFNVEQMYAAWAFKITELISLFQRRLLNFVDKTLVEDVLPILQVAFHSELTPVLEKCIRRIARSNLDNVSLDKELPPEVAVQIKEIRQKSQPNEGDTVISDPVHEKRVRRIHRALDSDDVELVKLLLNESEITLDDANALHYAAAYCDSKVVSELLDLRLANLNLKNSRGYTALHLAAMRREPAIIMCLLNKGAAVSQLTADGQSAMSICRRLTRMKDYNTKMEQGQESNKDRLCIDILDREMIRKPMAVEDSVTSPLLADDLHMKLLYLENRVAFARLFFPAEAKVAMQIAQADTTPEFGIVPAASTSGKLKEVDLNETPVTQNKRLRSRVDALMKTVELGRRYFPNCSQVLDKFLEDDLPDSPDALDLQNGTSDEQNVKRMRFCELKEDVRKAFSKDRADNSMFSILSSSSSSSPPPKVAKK

[2] = molecular target: T2, OsNPR3-HA (rice (Oryza sativa L.)) (UniProt Q75HA6); test: as above
T2 sequence: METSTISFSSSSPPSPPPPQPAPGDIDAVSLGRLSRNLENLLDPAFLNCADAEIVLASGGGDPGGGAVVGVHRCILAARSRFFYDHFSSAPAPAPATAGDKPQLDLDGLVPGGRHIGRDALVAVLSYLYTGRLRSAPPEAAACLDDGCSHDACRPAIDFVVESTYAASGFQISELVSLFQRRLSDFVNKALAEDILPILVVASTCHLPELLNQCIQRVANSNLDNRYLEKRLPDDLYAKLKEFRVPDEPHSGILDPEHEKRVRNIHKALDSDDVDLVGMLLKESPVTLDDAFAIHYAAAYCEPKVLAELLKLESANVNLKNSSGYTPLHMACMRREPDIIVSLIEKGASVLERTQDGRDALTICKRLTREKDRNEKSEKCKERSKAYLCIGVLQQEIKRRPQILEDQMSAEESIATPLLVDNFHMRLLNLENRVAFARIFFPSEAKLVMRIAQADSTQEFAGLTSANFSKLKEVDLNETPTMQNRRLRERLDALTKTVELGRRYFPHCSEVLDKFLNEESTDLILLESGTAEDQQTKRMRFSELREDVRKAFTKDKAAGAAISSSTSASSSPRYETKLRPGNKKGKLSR

[3] = molecular target: T3, Ski-interacting protein OsSKIPa (rice (Oryza sativa L.)) (UniProt Q6K8D9); test: two-hybrid; library screen: AH109 carrying the pGBKT7-bait mated with Y187 carrying the pGADT7-UbE3 library (1499 E3 ORFs) at 30 °C for 20-24 h; selection on SD-Leu-Trp-His-Ade; positive clones identified by PCR and sequencing
T3 sequence: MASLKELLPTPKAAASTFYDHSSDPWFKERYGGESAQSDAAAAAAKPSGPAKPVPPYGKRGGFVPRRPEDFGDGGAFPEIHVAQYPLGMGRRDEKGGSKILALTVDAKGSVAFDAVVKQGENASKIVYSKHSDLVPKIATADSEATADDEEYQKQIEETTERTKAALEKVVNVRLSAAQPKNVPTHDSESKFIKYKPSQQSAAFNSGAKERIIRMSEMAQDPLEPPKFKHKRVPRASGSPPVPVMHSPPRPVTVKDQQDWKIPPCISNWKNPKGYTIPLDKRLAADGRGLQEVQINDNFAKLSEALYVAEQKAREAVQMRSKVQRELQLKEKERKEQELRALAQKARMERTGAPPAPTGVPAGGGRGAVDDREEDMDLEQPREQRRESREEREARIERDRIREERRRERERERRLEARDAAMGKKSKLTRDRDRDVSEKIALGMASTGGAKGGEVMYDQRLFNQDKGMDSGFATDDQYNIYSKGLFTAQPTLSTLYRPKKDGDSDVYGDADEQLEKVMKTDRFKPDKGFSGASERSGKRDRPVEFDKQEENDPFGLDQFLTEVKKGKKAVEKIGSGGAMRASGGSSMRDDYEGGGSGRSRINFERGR

[4] = molecular target: T3, Ski-interacting protein OsSKIPa (rice (Oryza sativa L.)); test: two-hybrid; confirmation of single bait-E3 pairs in yeast; growth on DDO (SD-Leu-Trp) and QDO (SD-Leu-Trp-His-Ade); called yeast co-transformation assay for OsPAL1-OsFBK16
[5] = molecular target: T4, OsSKIPa-GFP (rice (Oryza sativa L.)) (UniProt Q6K8D9); test: co-IP; GFP-tagged substrate and HA-tagged E3 co-expressed in N. benthamiana leaves by agro-infiltration, 72 h; immunoprecipitated with anti-GFP/agarose beads; blot with anti-GFP or anti-HA
T4 sequence: T3 sequence

[6] = molecular target: rTGA2.1 (rice (Oryza sativa L.)); test: two-hybrid; confirmation of single bait-E3 pairs in yeast; growth on DDO (SD-Leu-Trp) and QDO (SD-Leu-Trp-His-Ade); called yeast co-transformation assay for OsPAL1-OsFBK16
[7] = molecular target: rTGA2.1 (rice (Oryza sativa L.)); test: two-hybrid; library screen: AH109 carrying the pGBKT7-bait mated with Y187 carrying the pGADT7-UbE3 library (1499 E3 ORFs) at 30 °C for 20-24 h; selection on SD-Leu-Trp-His-Ade; positive clones identified by PCR and sequencing
[8] = molecular target: OsPUB69-HA (rice (Oryza sativa L.)); test: co-IP; GFP-tagged substrate and HA-tagged E3 co-expressed in N. benthamiana leaves by agro-infiltration, 72 h; immunoprecipitated with anti-HA/agarose beads; blot with anti-GFP or anti-HA

binding [1]: binds
binding [2]: binds
Molecule: rTGA2.1-GFP (rice (Oryza sativa L.))

Molecule: OsPUB69 (enzyme)
binding [3]: binds
binding [4]: binds

binding [5]: binds
Molecule: OsPUB46-HA (rice (Oryza sativa L.)) (enzyme)

binding [3]: binds
binding [4]: binds
Molecule: OsPUB58 (enzyme)

binding [3]: binds
binding [4]: binds
Molecule: OsPUB46 (enzyme)

binding [5]: no binding
Molecule: OsRING199-HA (rice (Oryza sativa L.)) (enzyme)

binding [3]: binds
binding [4]: binds
Molecule: OsRING394 (enzyme)

binding [3]: binds
binding [4]: binds
Molecule: OsRING113 (enzyme)

binding [3]: binds
binding [4]: binds
Molecule: OsFBX503

binding [3]: binds
binding [4]: binds
Molecule: OsRING77 (enzyme)

binding [3]: binds
binding [4]: binds
Molecule: OsPUB49 (enzyme)

binding [3]: binds
binding [4]: binds
Molecule: OsRING199 (enzyme)

binding [3]: binds
binding [4]: binds
Molecule: OsRING171 (enzyme)

binding [3]: binds
binding [4]: binds
Molecule: OsPUB28 (enzyme)

binding [6]: binds
binding [7]: binds
B1: OsNPR2 (protein, UniProt Q0JJ01 1-635)
chain: T1 sequence

binding [8]: binds
B2: NRR-GFP (protein, UniProt Q5ZEF1 1-127)
chain: MDATTTAKRKRPAASDIADDAPTTVDEVSDAEVEEFYAILRRMRDATRRLGARPPPPRAPAWRPSFSWEDFADAPPKQAPPPPQQPADHERVAENATPPRRPAPGLDLNVEPPSDAPATPRSARAPA

binding [6]: binds
binding [7]: binds
B3: OsNPR3 (protein, UniProt Q75HA6 1-589)
chain: T2 sequence

No constants are given. Whether binding was seen depends on the method and setting. Binding calls can cover weak binding; strength is not graded here. For some of these results: In cells and extracts the contact can be indirect. For some of these results: Sequences can lack the tags named with a protein. Each block holds one molecule with its values, some of them ahead of it.
